Series [1] in a line: Encapsulation efficiency of SB-35 in silica microparticles, synthesis parameter studies (method not given). To be noted: for E.E. of SB-35: typical synthesis, 0.600 g Tween 61.
Series [2] in a line: FTIR determination of limonene leached into dodecane. The following applies: for encapsulation efficiency of limonene: leached into dodecane.

We go through two molecules from patent US9345667B2, “Particles having hydrophobic material therein” (Australian Nuclear Science and Technology Organisation, priority 2005, dated 2016).

With `CCCCNc1ccc(NCCCC)c2c1C(=O)c1ccccc1C2=O` [SB-35, Solvent Blue 35], the “encapsulation efficiency of SB-35” value in series [1] (0.714 mL limonene) is 38%; in series [1] (1.428 mL limonene) it was 31%. The encapsulation efficiency came out at 22.6% in series [1] (4 mL methanol added into the sol-gel solution) and 1.6% in series [1] (10 mL methanol added into the sol-gel solution). For the same molecule, the “E.E. of SB-35” value stood at 37.2% in series [1] (ageing time 5 min.); 44.7% in series [1] (ageing time 10 min); 34.5% in series [1] (ageing time 20 min); 33.4% in series [1] (ageing time 40 min); 36.0% in series [1] (methanol evaporation time 0.5 hr.); 36.5% in series [1] (methanol evaporation time 1 hr.). Besides, the “E.E. of SB-35” value in series [1] (methanol evaporation time 1.5 hr.) is 38.7%; in series [1] (without methanol evaporation), 36.7%.

In the case of `C=C(C)C1CC=C(C)CC1` (stereo not drawn) [limonene], the “encapsulation efficiency of limonene” value in series [2] (unwashed solid, FTIR 797 cm^-1 band) was found to be 19 wt. %; in series [2] (washed solid, FTIR 888 cm^-1 band) it was 5%. Besides, in series [2] (washed solid), the “limonene solid content with respect to silica” value turned out to be 1 wt %.
